Patent publication US20070190068A1, “uPAR-binding molecule-drug conjugates and uses thereof” (priority 2005, published 2007)
Some of these results come from one statement about several compounds together.

Tested on: MDA-231 GFP tumors
Test: Human breast carcinoma MDA-MB-231 GFP xenograft in nude mice (tumor volume)
Assay type: in vivo, BALB/c (nu/nu) mice
Text: FIG. 5. Preliminary dose defining study. Effect of anti-human uPAR IgG (Mab 3936), doxorubicin, Mab 3936-Doxorubicin conjugate on xenograft human breast cancer tumor model in nude mice (MDA-231 GFP tumors). Tumor volume (mm^3) from week 8 to week 11 post tumor cell inoculation were compared. Bar graph from left to right: animals received control serum, doxorubicin via intravenous (DOX I.V.), doxorubicin via […] (DOX I.P.), Mab 3936 (3936) or Mab 3936-doxorubicin conjugate (3936+DOX) (2 mg/animal).
FIG. 6. Effect of anti-human uPAR IgG (Mab 3936), doxorubicin, Mab 3936-doxorubicin conjugate on xenograft human breast cancer tumor model in nude mice (MDA-231 GFP tumors). Tumor volume (mm^3) from week 5 to week 15 post tumor cell inoculation were compared. Bar graph from left to right: animals received control serum, doxorubicin via intravenous, Mab 3936, doxorubicin via […], and Mab 3936-doxorubicin conjugate.
FIG. 7. Effect of anti-human uPAR IgG (Mab 3936), doxorubicin, Mab 3936-Doxorubicin conjugate (2 mg/animal), PAI-1 and PAI-1-Doxorubicin conjugate (PAI-1+DOX) (0.5 mg/animal) on MDA-231 GFP tumors. Tumor volume (mm^3) from week 8 to week 13 post tumor cell inoculation were compared. Bar graph from left to right: animals received control serum, doxorubicin via intravenous (DOX I.V.), doxorubicin intraparenteral (DOX I.P.), Mab 3936, Mab 3936-doxorubicin conjugate (2 mg/animal), PAI-1, and PAI-1-doxorubicin conjugate (0.5 mg/animal).
FIG. 8. Effect of Mab 3936, doxorubicin, Mab 3936-Doxorubicin conjugate on MDA-MB-231 GFP tumors. Tumor volume (mm^3) from week 8 to 13 post tumor cell inoculation were compared. Bar graph from left to right: animals received control serum, doxorubicin via intraparenteral, doxorubicin via intravenous, Mab 3936, and Mab 3936-doxorubicin conjugate.
FIG. 9. Effect of doxorubicin via intravenous or intraparenteral, PAI-1, PAI-1-Doxorubicin conjugate on MDA-MB-231 GFP tumors. Tumor volume (mm^3) from week 8 to 13 post tumor cell inoculation were compared. Bar graph from left to right: animals received control serum, doxorubicin via intraparenteral, doxorubicin via intravenous, PAI-1, and PAI-1-doxorubicin conjugate.
Xenograft studies using human breast carcinoma cell line MDA-MB-231.
For xenograft studies, 4 to 6 weeks old BALB/c (nu/nu) female mice were obtained from Charles River Inc. The mice weighed an average of 20 grams. Prior to inoculation, MDA-MB-231-GFP cells (Charles River) grown in serum containing culture medium were washed with Hank's balanced buffer and centrifuged at 1500 rpm for 5 min. […] The tumor mass was measured in two dimensions with calipers, twice a week.
Throughout the course of these studies, all control and experimental mice were monitored for any noticeable side effects. […]

Q: For COc1cccc2c1C(=O)c1c(O)c3c(c(O)c1C2=O)C[C@@](O)(C(=O)CO)C[C@@H]3O[C@H]1C[C@H](N)[C@H](O)[C@H](C)O1 [doxorubicin], which tumor volume (week 11, administered intravenously) is on record?
A: The tumor volume was “less than 30 mm^3”.

Q: What about the tumor volume (week 12 to week 15, intraperitoneal) of the same molecule?
A: The tumor volume was over 350 mm^3.

Q: And the tumor volume (week 15, intraperitoneal)?
A: Its tumor volume is over 350 mm^3.

Q: And the tumor volume (week 15, intravenous)?
A: Its tumor volume is over 350 mm^3.
